# Experimental data: PMC5358978, “Nuclear export receptor CRM1 recognizes diverse conformations in nuclear export signals” (eLife, 2017)
# Sequences of proteins named here, by UniProt entry; tags and fusion partners are left off. A change or cut given only in a name is not applied to a line headed by its entry.
# UniProt O14980: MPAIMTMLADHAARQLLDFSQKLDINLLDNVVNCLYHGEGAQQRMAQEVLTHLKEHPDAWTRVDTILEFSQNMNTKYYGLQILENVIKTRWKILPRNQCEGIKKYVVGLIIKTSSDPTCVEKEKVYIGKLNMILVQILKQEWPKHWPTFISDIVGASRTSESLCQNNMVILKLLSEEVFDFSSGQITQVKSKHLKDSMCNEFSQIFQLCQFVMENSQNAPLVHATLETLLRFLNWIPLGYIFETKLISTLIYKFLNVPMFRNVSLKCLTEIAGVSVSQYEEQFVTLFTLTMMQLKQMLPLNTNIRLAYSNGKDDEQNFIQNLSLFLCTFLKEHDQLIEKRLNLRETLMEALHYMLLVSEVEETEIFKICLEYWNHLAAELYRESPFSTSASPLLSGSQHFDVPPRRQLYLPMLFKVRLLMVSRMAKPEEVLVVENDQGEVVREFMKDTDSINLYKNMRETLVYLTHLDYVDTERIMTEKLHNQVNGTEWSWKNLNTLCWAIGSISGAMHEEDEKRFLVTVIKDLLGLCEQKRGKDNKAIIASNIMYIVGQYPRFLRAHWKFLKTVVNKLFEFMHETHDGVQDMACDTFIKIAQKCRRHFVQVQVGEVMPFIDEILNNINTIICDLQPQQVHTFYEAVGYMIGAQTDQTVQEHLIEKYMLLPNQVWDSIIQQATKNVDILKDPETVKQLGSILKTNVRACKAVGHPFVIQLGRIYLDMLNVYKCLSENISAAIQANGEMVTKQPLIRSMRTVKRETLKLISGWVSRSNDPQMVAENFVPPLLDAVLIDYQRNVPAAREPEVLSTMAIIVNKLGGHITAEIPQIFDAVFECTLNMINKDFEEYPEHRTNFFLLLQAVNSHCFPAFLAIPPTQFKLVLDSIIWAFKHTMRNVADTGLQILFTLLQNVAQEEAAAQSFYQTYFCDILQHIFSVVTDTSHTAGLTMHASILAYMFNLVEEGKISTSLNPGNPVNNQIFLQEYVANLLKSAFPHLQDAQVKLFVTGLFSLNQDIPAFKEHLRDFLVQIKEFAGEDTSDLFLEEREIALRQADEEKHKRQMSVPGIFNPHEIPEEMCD
# These are yes or no findings as the source states them, for the method shown. Tags and fused reporters may be left off the sequences shown.
# Columns and labels:
# Experiment in all cases: pull-down; ~5 µg immobilized GST-NESs, 7.5 µM ScRanGTP and 2.5 µM HsCRM1 (wild type or mutant) in 200 µL; both purified
# [1] = biological target: T1, GST-COMMD1 peptide (false positive NES)
# T1 sequence: KTLSEVEESISTLISQPN
# [2] = biological target: T2, GST-DEAF1 peptide (false positive NES)
# T2 sequence: SWLYLEEMVNSLLNTAQQ
# [3] = biological target: T3, GST-Hxk2 peptide (false positive NES)
# T3 sequence: DVPKELMQQIENFEKIFTV
binding [1],binding [2],binding [3],Substance
no binding (tested: 2.5 µM),no binding (tested: 2.5 µM),no binding (tested: 2.5 µM),"human CRM1 (HsCRM1), wild type (from UniProt O14980 1-1071) (receptor)"
,,no binding (tested: 2.5 µM),human CRM1 mutant HsCRM1(K568M) (from UniProt O14980 1-1071) (receptor)
